# Several values for one entry are separate records, joined by “and”; a condition that tells them apart may be missing. Identical values can stand only once. Counter-ions that a name gives are not always drawn. ± gives the standard deviation of the averaged measurements. Some of the results follow. This data set is noisy: repeats of one test often differ as much as different tests do.
# Test system: A549
# Experiment: surface PD-L1 immunofluorescence intensity relative to IFN-gamma-only control (ratio); higher = more PD-L1 expression
# Details: 10 µM; exposure time 24 h; IFN-gamma 100 ng/mL
row,SMILES,surface PD-L1 immunofluorescence intensity
1,N[C@H]1C(O)O[C@H](CO)[C@@H](O)[C@@H]1O (some centres undefined) [Glucosamine HCl],1.01
2,C=C1C[C@H]2[C@@H]3C=C(C)C4=CC(=O)CC[C@]4(C)[C@H]3CC[C@]2(C)[C@@]1(OC(C)=O)C(C)=O [Melengestrol acetate],0.884
3,CC1=CC(=O)NS(=O)(=O)O1 [Acesulfame Potassium],1.04
4,"CCCC(=O)Nc1ncnc2c1ncn2[C@@H]1O[C@@H]2COP(=O)(O)O[C@H]2[C@H]1OC(=O)CCC [Dibutyryl-cAMP, sodium salt]",0.954
5,CCCC(=O)Nc1ncnc2c1ncn2[C@@H]1O[C@@H]2COP(=O)(O)O[C@H]2[C@H]1OC(=O)CCC [Bucladesine sodium salt],0.974
6,CN(C)CCC[C@@]1(c2ccc(F)cc2)OCc2cc(C#N)ccc21 [Escitalopram],0.923
7,CN1CCCC(n2nc(Cc3ccc(Cl)cc3)c3ccccc3c2=O)CC1 (centres undefined) [Azelastine HCl],1.09
8,O=c1oc(-c2ccc(C(F)(F)F)cc2)nn1Cc1cc(Cl)ccc1O,0.92
9,COc1ccc(S(=O)(=O)N2c3ccc(Cl)cc3[C@](O)(c3ccccc3Cl)[C@@H]2C(=O)N2CCC[C@H]2C(N)=O)cc1OC,1.01
10,CN1CCCCC1CCN1c2ccccc2Sc2ccc([S+](C)[O-])cc21 (centres undefined) [Mesoridazine besylate],0.976
11,O=S(=O)(c1ccccc1)c1cnc2c(N3CCNCC3)cccc2c1,0.981
12,Cc1c(C(=O)NC2CCCCC2)sc2nc3ccc(N)cc3n12,1.05
13,O=C(O[C@H]1CN2CCC1CC2)N1CCc2ccccc2[C@@H]1c1ccccc1 [Solifenacin succinate],0.997
14,NC(=O)N/N=C/c1ccc([N+](=O)[O-])o1 [Nitrofural],1.04
15,"Nc1nc2c(nc(Br)n2[C@@H]2O[C@@H]3COP(=O)(O)O[C@H]3[C@H]2O)c(=O)[nH]1 [8-Bromo-cGMP, sodium salt]",0.974
16,CO[C@@H]1[C@@H](OC(N)=O)[C@@H](O)[C@H](Oc2ccc3c(O)c(NC(=O)c4ccc(O)c(CC=C(C)C)c4)c(=O)oc3c2C)OC1(C)C [Novobiocin sodium salt],0.898
17,CCN1CCN(C(=O)N[C@@H](C(=O)N[C@@H]2C(=O)N3[C@@H]2SC(C)(C)[C@@H]3C(=O)O)c2ccccc2)C(=O)C1=O [Piperacillin sodium salt],0.953
18,CC(C)NCCN(C(C)C)S(=O)(=O)c1ccc(Cl)cc1Cl,0.981
19,FC(F)(F)c1ccc(/C=C/c2nc(COc3ccc(CCCCn4ccnn4)cc3)co2)cc1 [Mubritinib (TAK 165)],1.06
20,O=C1c2c(O)cc(O)cc2OC(c2ccc(O)c(O)c2)C1O (centres undefined) [Taxifolin (Dihydroquercetin)],0.883
21,COc1ccc(Nc2nccc(NCCO)n2)cc1 [Cardiogenol C hydrochloride],0.956
22,CN(C)CCCOc1nn(Cc2ccccc2)c2ccccc12 [Benzydamine hydrochloride],1.01

row,SMILES,surface PD-L1 immunofluorescence intensity
1,C#C[C@]1(O)CC[C@H]2[C@@H]3[C@H](C)CC4=C(CCC(=O)C4)[C@H]3CC[C@@]21C [Tibolone],0.906
2,Cn1cc(C(=O)OCC2CCN(CCNS(C)(=O)=O)CC2)c2ccccc21,0.982
3,OC[C@@H](O)[C@@H](O)[C@H](O)[C@@H](O)CO [Sorbitol (Glucitol)],0.832
4,CCCCC(=O)O[C@]1(C(=O)CO)[C@@H](C)C[C@H]2[C@@H]3CCC4=CC(=O)C=C[C@]4(C)[C@@]3(F)[C@@H](O)C[C@@]21C [Betamethasone valerate (Betnovate)],0.839
5,CC(=O)OCC(=O)[C@@]1(O)CC[C@H]2[C@@H]3CCC4=CC(=O)CC[C@]4(C)[C@H]3C(=O)C[C@@]21C [Cortisone acetate (Cortone)],0.999
6,CC(=O)OCC(=O)[C@@]1(O)CC[C@H]2[C@@H]3CCC4=CC(=O)C=C[C@]4(C)[C@@]3(F)[C@@H](O)C[C@@]21C [Isoflupredone acetate],0.761
7,CN1CCN(c2cccc(Nc3nc4c(-c5ccc(S(C)(=O)=O)cc5)cccn4n3)c2)CC1,0.732 ± 0.035
8,COc1cc2nc(N3CCN(C(=O)C4CCCO4)CC3)nc(N)c2cc1OC (centres undefined) [Terazosin hydrochloride],1.05 ± 0.048
9,CC(C)(O)CC[C@@H](O)[C@](C)(O)[C@H]1CC[C@@]2(O)C3=CC(=O)[C@@H]4C[C@@H](O)[C@@H](O)C[C@]4(C)[C@H]3CC[C@]12C [20-Hydroxyecdysone],1.01
10,Nc1ccc(S(=O)(=O)Nc2ccc(Cl)nn2)cc1 [Sulfachloropyridazine],1.09
11,Cc1ccc(/C=N/NC(=O)c2ccccc2Oc2ccccc2)o1,1.03 and 1.06
12,C[C@H](NC(=O)[C@@H]1CCCN1C(=O)[C@@H]1CCCN1C(=O)[C@@H](O)[C@H](N)Cc1ccccc1)C(N)=O [Apstatin],1.01
13,COc1cc(C)c(/C=C/C(C)=C/C=C/C(C)=C/C(=O)O)c(C)c1C [Acitretin],1.03 ± 0.08
14,CC(C)(F)C[C@H](N[C@@H](c1ccc(-c2ccc(S(C)(=O)=O)cc2)cc1)C(F)(F)F)C(=O)NC1(C#N)CC1 [Odanacatib (MK 0822)],1.02
15,NS(=O)(=O)c1cc2c(cc1Cl)NCNS2(=O)=O [Hydrochlorothiazide],0.87
16,O=C(NC1CCOCC1)c1ccc(-c2cc(-c3c[nH]nc3-c3ccccn3)ccn2)cc1,1
17,O=C1C(=O)N(Cc2ccc(Cl)c(Cl)c2)c2ccccc21 [Apoptosis Activator 2],0.976
18,COc1cc(/C=C/C(=O)O)ccc1O [Fumalic acid (Ferulic acid)],1.07
19,C[N+]1(C)CCC(=C(c2ccccc2)c2ccccc2)CC1 [Diphemanil methylsulfate],0.85
20,CN(C)CCc1c[nH]c2ccc(C[C@H]3COC(=O)N3)cc12 [Zolmitriptan (Zomig)],0.859
21,CN(C)CCC=C1c2ccccc2C=Cc2ccccc21 [Cyclobenzaprine hydrochloride],0.909
22,O=C1c2cccc(O)c2C(=O)c2c(O)cc(CO)cc21 [Aloe-emodin],1.09

# From the supplement of paper PMC8732350
